Entries after “also recorded” stand apart in the source; their conditions may differ.
Key:
[1] = Evaluation of scent/aromatic note and diffusion (impregnated filter paper smelled by expert panelist); design: key to Diffusion: Good: when the intensity of the scent immediately after the filter paper was impregnated was equivalent to that of the reference examples (Example 1 and Example 7), the diffusion was evaluated as “good”; Very good: When the intensity of the scent immediately after the filter paper was impregnated was stronger than that of the reference examples (Example 1 and Example 7), the diffusion was evaluated as “very good”; Poor: When the intensity of the scent immediately after the filter paper was impregnated was weaker (less than the same) than that of the reference examples (Example 1 and Example 7), the diffusion was evaluated as “poor”; conditions: for Scent, aromatic note: aldehyde composition on filter paper, expert panelist
[2] = Non-Patent Literature 1; cited from earlier work

SMILES | Diffusion ([1]; Table 2, intensity of scent immediately after impregnation versus reference Example 7) | Scent, aromatic note [1] | aroma [2] | Diffusion ([1]; Table 1, intensity of scent immediately after impregnation versus reference Example 1)
CCCCc1ccc(CC(C)C=O)cc1 (stereo not shown) [Comparative Example 3, 3-(4-n-butylphenyl)-2-methylpropanal] | Poor | Floral,; also recorded: Green,; also recorded: Muguet,; also recorded: Powdery | – | –
CC(C=O)Cc1ccc(C(C)(C)C)cc1 (stereo not shown) [Comparative Example 5, 3-(p-tert-butylphenyl)-2-methylpropanal] | – | – | lily-of-the-valley-like aroma | –
CC(C=O)Cc1ccc(C(C)C)cc1 (stereo not shown) [cyclamen aldehyde, 3-(p-isopropylphenyl)-2-methylpropanal] | – | – | cyclamen- and lily-of-the-valley-like aroma with a melon- and cucumber-like feeling | –
CC(C=O)Cc1ccc2c(c1)OCO2 (stereo not shown) [Helional, 3-(3,4-methylenedioxyphenyl)-2-methylpropanal] | – | – | sweet heliotrope- and anise-like floral scent | –
CCCCc1ccc(CCC=O)cc1 [Comparative Example 1, 3-(4-n-butylphenyl)propanal] | – | Floral,; also recorded: Green,; also recorded: Aldehyde,; also recorded: Muguet | – | Poor

— patent US20240391859A1, “ALDEHYDE COMPOSITION” (MITSUBISHI GAS CHEMICAL COMPANY, INC., priority 2021, published 2024)
